Source: the supplement of paper PMC6411743
± gives the standard deviation of the averaged measurements. Only a part is listed here, and it is no random draw.

Sequences of proteins named here, by UniProt entry; tags and fusion partners are left off. A change or cut given only in a name is not applied to a line headed by its entry.
UniProt Q96A26: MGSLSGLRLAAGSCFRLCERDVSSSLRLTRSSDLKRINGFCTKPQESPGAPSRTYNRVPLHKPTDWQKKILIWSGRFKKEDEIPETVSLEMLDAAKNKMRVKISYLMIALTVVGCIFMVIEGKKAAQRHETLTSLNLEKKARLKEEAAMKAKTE
UniProt Q9HC38: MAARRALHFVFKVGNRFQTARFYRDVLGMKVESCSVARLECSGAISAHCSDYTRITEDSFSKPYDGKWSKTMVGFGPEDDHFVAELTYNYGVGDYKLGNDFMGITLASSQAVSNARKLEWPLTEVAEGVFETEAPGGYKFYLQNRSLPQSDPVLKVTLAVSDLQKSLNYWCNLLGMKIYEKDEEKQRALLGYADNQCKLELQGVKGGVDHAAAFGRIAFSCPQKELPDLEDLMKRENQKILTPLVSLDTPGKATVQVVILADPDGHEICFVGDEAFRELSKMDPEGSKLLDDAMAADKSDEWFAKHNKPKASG
UniProt Q9UKV3: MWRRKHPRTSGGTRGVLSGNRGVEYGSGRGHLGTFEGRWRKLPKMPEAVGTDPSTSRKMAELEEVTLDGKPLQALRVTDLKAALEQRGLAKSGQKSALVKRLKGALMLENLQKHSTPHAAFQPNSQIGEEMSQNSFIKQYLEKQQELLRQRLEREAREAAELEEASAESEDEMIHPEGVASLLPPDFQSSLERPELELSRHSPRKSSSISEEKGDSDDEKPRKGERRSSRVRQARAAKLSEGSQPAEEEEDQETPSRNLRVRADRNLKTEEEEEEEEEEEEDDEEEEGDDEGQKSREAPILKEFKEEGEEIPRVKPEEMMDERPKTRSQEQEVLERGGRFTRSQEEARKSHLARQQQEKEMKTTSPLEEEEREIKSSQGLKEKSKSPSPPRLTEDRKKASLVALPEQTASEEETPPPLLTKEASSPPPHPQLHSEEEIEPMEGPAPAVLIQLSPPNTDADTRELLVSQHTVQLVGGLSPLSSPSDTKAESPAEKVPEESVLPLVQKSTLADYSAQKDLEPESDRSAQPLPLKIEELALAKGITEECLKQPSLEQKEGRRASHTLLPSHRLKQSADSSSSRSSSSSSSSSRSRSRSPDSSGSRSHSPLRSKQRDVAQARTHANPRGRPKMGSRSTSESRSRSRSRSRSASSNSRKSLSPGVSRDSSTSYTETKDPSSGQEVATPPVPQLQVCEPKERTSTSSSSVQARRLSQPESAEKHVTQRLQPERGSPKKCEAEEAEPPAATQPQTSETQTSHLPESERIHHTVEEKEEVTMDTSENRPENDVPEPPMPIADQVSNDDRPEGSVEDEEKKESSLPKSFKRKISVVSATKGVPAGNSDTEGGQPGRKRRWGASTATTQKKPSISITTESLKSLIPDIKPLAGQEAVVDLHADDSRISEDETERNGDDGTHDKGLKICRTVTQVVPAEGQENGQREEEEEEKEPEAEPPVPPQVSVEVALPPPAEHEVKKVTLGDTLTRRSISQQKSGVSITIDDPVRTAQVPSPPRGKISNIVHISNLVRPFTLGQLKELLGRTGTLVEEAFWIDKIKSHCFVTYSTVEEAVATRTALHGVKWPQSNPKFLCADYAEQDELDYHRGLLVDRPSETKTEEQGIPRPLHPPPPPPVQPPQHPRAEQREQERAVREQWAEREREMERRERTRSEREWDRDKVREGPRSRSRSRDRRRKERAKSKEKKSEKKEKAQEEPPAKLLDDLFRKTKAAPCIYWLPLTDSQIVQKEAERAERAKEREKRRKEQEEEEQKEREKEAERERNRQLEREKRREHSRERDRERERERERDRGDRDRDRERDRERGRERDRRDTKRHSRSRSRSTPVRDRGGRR
UniProt Q8N9N8: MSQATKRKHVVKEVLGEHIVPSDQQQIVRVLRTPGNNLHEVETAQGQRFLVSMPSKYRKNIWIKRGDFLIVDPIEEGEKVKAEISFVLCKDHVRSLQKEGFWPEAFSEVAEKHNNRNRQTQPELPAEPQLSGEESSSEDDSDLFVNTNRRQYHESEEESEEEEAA
UniProt Q6DD88: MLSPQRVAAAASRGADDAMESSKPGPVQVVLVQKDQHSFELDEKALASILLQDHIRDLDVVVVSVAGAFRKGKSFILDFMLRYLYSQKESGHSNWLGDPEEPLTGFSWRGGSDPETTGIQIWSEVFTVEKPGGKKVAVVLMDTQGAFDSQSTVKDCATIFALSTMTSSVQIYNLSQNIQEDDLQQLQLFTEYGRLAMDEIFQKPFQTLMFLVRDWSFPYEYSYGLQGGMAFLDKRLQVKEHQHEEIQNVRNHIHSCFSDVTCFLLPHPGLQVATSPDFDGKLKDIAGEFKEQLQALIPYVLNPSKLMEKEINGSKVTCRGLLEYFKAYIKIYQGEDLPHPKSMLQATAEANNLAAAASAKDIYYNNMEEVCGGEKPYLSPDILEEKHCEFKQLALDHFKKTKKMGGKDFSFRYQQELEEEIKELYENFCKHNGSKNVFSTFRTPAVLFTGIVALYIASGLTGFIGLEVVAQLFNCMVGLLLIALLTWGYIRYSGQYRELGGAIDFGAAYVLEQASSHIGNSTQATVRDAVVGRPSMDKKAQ
UniProt Q8N8R7: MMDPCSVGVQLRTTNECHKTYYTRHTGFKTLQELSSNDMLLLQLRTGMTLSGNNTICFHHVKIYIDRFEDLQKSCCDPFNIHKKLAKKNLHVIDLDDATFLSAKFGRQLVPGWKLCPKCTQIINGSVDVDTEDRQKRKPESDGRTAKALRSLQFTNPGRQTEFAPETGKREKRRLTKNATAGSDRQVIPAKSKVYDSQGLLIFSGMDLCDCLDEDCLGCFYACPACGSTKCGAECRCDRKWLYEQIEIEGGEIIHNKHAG
UniProt Q13889: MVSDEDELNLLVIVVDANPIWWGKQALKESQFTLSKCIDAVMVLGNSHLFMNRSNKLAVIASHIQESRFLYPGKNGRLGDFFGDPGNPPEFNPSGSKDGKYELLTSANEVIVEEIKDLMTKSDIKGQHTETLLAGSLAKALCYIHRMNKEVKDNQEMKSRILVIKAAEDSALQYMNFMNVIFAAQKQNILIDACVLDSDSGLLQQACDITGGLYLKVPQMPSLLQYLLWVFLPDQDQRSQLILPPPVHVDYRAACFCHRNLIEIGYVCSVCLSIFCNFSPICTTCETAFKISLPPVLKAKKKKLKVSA
UniProt P23528, whole entry: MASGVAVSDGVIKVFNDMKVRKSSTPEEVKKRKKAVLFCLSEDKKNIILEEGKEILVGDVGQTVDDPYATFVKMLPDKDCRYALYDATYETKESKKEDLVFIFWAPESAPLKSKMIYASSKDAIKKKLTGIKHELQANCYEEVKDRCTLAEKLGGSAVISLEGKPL
UniProt Q9GZT6: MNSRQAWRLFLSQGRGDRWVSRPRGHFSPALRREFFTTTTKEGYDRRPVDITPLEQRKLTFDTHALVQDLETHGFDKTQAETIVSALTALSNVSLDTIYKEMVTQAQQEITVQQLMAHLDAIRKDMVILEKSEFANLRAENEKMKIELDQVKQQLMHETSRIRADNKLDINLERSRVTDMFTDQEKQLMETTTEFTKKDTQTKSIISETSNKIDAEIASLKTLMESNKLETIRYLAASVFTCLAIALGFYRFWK
UniProt Q6SPF0: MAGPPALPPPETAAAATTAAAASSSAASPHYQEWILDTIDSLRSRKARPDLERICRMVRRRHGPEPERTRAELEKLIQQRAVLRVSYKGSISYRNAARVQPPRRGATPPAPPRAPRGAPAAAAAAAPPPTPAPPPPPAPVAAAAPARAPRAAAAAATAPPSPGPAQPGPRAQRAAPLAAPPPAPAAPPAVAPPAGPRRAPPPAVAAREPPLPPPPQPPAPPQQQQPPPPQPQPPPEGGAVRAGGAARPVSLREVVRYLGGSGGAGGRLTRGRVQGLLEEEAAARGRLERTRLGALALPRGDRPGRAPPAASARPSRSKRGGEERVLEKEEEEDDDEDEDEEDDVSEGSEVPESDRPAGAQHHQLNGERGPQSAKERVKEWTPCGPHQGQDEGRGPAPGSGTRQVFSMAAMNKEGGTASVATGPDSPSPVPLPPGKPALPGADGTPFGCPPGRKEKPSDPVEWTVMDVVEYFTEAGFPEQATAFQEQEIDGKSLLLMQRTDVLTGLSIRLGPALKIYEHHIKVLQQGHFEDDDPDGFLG
UniProt P56134: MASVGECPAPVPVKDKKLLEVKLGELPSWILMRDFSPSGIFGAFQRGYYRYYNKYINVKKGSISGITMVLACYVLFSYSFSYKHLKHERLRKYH
UniProt P10809, whole entry: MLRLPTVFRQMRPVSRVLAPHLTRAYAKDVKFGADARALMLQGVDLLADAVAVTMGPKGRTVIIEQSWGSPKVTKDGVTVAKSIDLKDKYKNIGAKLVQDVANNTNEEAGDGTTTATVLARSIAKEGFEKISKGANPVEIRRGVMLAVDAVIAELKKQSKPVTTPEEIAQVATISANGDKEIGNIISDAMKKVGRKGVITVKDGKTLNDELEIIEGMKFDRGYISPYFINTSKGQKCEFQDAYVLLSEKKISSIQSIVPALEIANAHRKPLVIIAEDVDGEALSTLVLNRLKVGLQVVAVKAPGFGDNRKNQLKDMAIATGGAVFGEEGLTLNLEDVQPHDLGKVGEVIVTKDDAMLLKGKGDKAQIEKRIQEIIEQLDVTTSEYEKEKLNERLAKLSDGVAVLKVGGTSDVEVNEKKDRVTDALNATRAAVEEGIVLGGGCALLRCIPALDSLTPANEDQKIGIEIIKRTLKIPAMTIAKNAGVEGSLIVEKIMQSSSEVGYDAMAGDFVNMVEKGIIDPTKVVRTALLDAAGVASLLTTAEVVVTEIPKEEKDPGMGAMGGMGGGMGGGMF
UniProt P18887, whole entry: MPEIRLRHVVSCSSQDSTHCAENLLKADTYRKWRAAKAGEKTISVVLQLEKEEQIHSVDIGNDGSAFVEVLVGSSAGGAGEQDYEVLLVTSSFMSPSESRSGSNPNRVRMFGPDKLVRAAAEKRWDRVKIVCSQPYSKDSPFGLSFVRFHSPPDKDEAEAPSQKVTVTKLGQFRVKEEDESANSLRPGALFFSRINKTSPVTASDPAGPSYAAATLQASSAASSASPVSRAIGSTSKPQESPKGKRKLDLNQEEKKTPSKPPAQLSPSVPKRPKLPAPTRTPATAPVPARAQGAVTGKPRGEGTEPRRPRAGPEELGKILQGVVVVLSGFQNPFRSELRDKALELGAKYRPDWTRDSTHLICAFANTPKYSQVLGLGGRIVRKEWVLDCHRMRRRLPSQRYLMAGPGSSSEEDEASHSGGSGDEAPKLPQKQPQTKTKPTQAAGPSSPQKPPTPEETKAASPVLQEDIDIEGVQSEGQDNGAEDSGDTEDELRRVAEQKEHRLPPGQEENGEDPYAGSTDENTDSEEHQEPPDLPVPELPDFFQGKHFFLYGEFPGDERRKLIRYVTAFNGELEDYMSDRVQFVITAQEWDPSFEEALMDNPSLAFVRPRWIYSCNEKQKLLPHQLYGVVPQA
UniProt Q53FT3: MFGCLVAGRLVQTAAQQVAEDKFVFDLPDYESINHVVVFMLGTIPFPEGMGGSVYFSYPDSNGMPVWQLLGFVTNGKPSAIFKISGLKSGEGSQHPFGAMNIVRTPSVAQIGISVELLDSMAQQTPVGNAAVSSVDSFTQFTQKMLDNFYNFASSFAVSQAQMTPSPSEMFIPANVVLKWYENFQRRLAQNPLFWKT
UniProt P52747: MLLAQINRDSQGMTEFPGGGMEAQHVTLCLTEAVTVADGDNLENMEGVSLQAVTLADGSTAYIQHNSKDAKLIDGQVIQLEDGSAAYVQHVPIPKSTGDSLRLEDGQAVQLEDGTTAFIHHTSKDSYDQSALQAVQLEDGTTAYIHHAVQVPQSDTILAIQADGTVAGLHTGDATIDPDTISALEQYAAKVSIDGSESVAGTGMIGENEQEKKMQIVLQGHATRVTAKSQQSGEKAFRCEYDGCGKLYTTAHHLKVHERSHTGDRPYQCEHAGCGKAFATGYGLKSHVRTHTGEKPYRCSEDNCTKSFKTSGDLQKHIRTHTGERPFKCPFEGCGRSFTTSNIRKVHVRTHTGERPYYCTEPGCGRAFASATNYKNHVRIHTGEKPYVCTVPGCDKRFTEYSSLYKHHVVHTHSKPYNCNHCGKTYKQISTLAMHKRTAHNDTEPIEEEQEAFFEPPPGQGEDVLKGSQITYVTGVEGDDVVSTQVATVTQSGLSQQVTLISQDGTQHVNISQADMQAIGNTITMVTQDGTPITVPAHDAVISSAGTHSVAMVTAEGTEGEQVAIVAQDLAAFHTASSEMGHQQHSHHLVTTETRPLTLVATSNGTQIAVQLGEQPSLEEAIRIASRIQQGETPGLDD

Compound: Nc1ncnc2c1ncn2[C@@H]1O[C@H](COP(=O)(O)OP(=O)(O)NP(=O)(O)O)[C@@H](O)[C@H]1O [adenylyl imidodiphosphate]
Test: NP40-soluble protein abundance relative to vehicle (solubility fold change) (ratio); higher = more soluble protein in presence of AMP-PNP
Summary of the method: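 Values are fold changes against the detergent-processed vehicle, based on vsn-normalised intensities. Jurkat crude lysate was treated at eight concentrations from 0.1 to 10 mM (10 min at room temperature, then 3 min at 37 °C), solubilised with 0.8% NP40 and benzonase, ultracentrifuged and analysed by TMT-labelled LC-MS/MS over three independent experiments.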

Target | NP40-soluble protein abundance (concentration: 1mM) | NP40-soluble protein abundance (concentration: 2mM) | NP40-soluble protein abundance (concentration: 4mM) | NP40-soluble protein abundance (concentration: 6mM) | NP40-soluble protein abundance (concentration: 8mM) | NP40-soluble protein abundance (concentration: 10mM)
F8W7Q4 and related entries (UniProt Q96A26) | 0.97 ± 0.045 | 1.02 ± 0.064 | 0.956 ± 0.078 | 1.03 ± 0.056 | 0.995 ± 0.016 | 0.997 ± 0.025
F6TLX2 and related entries (UniProt Q9HC38) | 1.01 ± 0.02 | 1.01 ± 0.014 | 0.981 ± 0.03 | 0.958 ± 0.035 | 0.938 ± 0.034 | 0.95 ± 0.047
E7EQT4 and related entries (UniProt Q9UKV3) | 1.05 ± 0.061 | 1.1 ± 0.021 | 1.05 ± 0.07 | 1.03 ± 0.09 | 0.972 ± 0.04 | 1.04 ± 0.069
E9PLI6 and related entries (UniProt Q8N9N8) | 0.954 ± 0.02 | 1 ± 0.05 | 0.977 ± 0.036 | 0.987 ± 0.024 | 0.998 ± 0.03 | 1.03 ± 0.024
F5H6I7 and related entries (UniProt Q6DD88) | 1.023 ± 0.008 | 0.981 ± 0.059 | 0.9673 ± 0.0048 | 0.989 ± 0.012 | 0.9754 ± 0.0077 | 0.967 ± 0.048
E9PRK7 and related entries (UniProt Q8N8R7) | 1.01 ± 0.028 | 0.998 ± 0.018 | 0.982 ± 0.0046 | 1 ± 0.037 | 0.987 ± 0.03 | 0.9978 ± 0.003
F5GXG6 and related entries (UniProt Q13889) | 0.979 ± 0.024 | 0.988 ± 0.032 | 1.02 ± 0.045 | 1.04 ± 0.053 | 1.04 ± 0.017 | 1.06 ± 0.023
E9PP50 and related entries (UniProt P23528) | 1.01 ± 0.018 | 0.983 ± 0.017 | 0.949 ± 0.036 | 0.9734 ± 0.0025 | 0.957 ± 0.019 | 0.935 ± 0.044
E9PKQ5 and related entries (UniProt Q9GZT6) | 1.02 ± 0.036 | 1.05 ± 0.029 | 1.01 ± 0.064 | 0.994 ± 0.035 | 0.933 ± 0.02 | 0.959 ± 0.037
E9PIW9 and related entries (UniProt Q6SPF0) | 1.005 ± 0.01 | 1.04 ± 0.026 | 0.996 ± 0.029 | 0.976 ± 0.023 | 0.952 ± 0.023 | 0.994 ± 0.067
G3V325 (UniProt P56134) | 0.999 ± 0.015 | 0.982 ± 0.016 | 0.97 ± 0.0093 | 0.9654 ± 0.0065 | 0.999 ± 0.029 | 0.976 ± 0.038
E7ESH4 and related entries (UniProt P10809) | 1.01 ± 0.041 | 1.02 ± 0.022 | 0.973 ± 0.018 | 0.968 ± 0.057 | 0.95 ± 0.033 | 0.975 ± 0.028
F5H8D7 and related entries (UniProt P18887) | 1.01 ± 0.011 | 1.03 ± 0.031 | 1.028 ± 0.0073 | 1.07 ± 0.014 | 1.05 ± 0.03 | 1.11 ± 0.029
E9PPG8 and related entries (UniProt Q53FT3) | 0.97 ± 0.019 | 0.951 ± 0.026 | 0.952 ± 0.016 | 0.973 ± 0.014 | 0.98 ± 0.024 | 0.9496 ± 0.0041
E7EN86 and related entries (UniProt P52747) | 0.99 ± 0.042 | 0.999 ± 0.043 | 0.994 ± 0.033 | 0.987 ± 0.031 | 1 ± 0.048 | 0.991 ± 0.045

Some of the entries so far, tab-delimited.
Target	NP40-soluble protein abundance (concentration: 1mM)	NP40-soluble protein abundance (concentration: 2mM)	NP40-soluble protein abundance (concentration: 4mM)	NP40-soluble protein abundance (concentration: 6mM)	NP40-soluble protein abundance (concentration: 8mM)	NP40-soluble protein abundance (concentration: 10mM)
G3V325 (UniProt P56134)	0.999 ± 0.015	0.982 ± 0.016	0.97 ± 0.0093	0.9654 ± 0.0065	0.999 ± 0.029	0.976 ± 0.038
E7ESH4 and related entries (UniProt P10809)	1.01 ± 0.041	1.02 ± 0.022	0.973 ± 0.018	0.968 ± 0.057	0.95 ± 0.033	0.975 ± 0.028
